Data on nine molecules can be found in the supplement of paper PMC12024529.

In one assay the test system is HEK293 WT BDD-FVIII-Gluc. Nature of the assay: secreted FVIII-Gluc luciferase Z-score vs DMSO control; higher = more FVIII-Gluc secretion. As to conditions: 5 µM; 24 h.
The subject of assay [1] is HEK293 p.N1941S BDD-FVIII-Gluc. Described as above. The note with it: 5 µM; 24 h.

Structures can show the parent of a compound that is named as a salt. Some of the results follow. Baselines shift from plate to plate; read single values as rough.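 The cells are HEK293 lines stably expressing B-domain-deleted factor VIII fused to Gaussia luciferase, either wild type or a misfolding-prone missense mutant. Each score is mean luminescence from triplicate wells minus the DMSO mean, divided by the DMSO standard deviation; a score of 2 or more counts as a hit, and low scores may reflect lower secretion or poorer cell viability.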

On to `NCCS` [Cysteamine HCl], for which the “secreted FVIII-Gluc luciferase Z-score” value is inactive: 0.181 in the assay with HEK293 WT BDD-FVIII-Gluc and inactive: 0.958 in assay [1].
For the molecule `C=C(c1ccc(C(=O)O)cc1)c1cc2c(cc1C)C(C)(C)CCC2(C)C` [Bexarotene], the “secreted FVIII-Gluc luciferase Z-score” value was inactive: -1.97 in the assay with HEK293 WT BDD-FVIII-Gluc and inactive: 0.368 in assay [1].
`CCOC(=O)OC(C)OC1=C(C(=O)Nc2ccccn2)N(C)S(=O)(=O)c2ccccc21` (stereo not drawn) [Ampiroxicam]: the “secreted FVIII-Gluc luciferase Z-score” value is inactive: -0.857 in the assay on HEK293 WT BDD-FVIII-Gluc and inactive: -0.98 in assay [1].
In the same order, the values of `COC(=O)CCc1ccc(OCC(O)CNC(C)C)cc1` (stereo not drawn) [Esmolol HCl] are active: 3.28 and inactive: 1.79.
With `CC(=O)O[C@@]12CO[C@@H]1C[C@H](O)[C@@]1(C)C(=O)[C@H](O)C3=C(C)[C@@H](OC(=O)[C@H](O)[C@@H](NC(=O)OC(C)(C)C)c4ccccc4)C[C@@](O)([C@@H](OC(=O)c4ccccc4)[C@H]21)C3(C)C` [Docetaxel (Taxotere)], the “secreted FVIII-Gluc luciferase Z-score” value in the assay on HEK293 WT BDD-FVIII-Gluc is inactive: -3.68; in assay [1] it was inactive: -10.8.
Taken in the same sequence, the figures for `C=C[C@H]1CN2CC[C@H]1C[C@H]2[C@H](O)c1ccnc2ccc(OC)cc12` [Quinine hydrochloride dihydrate] were inactive: -0.25 and inactive: 0.367.
In the same order, the values of `O=NO` [Sodium nitrite] are inactive: -1.24 and inactive: -0.571.
With `OCCN(CCO)c1nc(N2CCCCC2)c2nc(N(CCO)CCO)nc(N3CCCCC3)c2n1` [Dipyridamole (Persantine)], the “secreted FVIII-Gluc luciferase Z-score” value in the assay with HEK293 WT BDD-FVIII-Gluc is inactive: -0.0358; in assay [1] it was inactive: -0.917.
Taken in the same sequence, the figures for `CCN(CC)CCOC(=O)C1(C2CCCCC2)CCCCC1` [Dicyclomine HCl] were inactive: -1.25 and inactive: -0.183.
